The supplement of paper PMC7661543
Differences between knockout arms are mostly noise.

Test system: ZR-75-1
Assay: relative cell number vs DMSO control (72 h) (% of DMSO); higher = less growth inhibition (more cells)
Protocol: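 QMAP-Seq: a pool of 5 breast cancer cell lines (ZR-75-1, SKBR3, HCC-38, MDA-MB-231, BT-20), each carrying 12 doxycycline-inducible Cas9 sgRNA perturbations (11 knockouts plus non-targeting sgNT), was treated with compounds for 72 h at four 10-fold doses (10 nM-10 uM or 1 nM-1 uM range). Barcodes were amplified and sequenced, and cell number was interpolated from 293T spike-in standard curves. The result is expressed as % of the median of DMSO wells. Two biological replicates.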

S=c1nc[nH]c2nc[nH]c12 [6-Mercaptopurine]
Conditions | relative cell number
sgRNA knockout: sgATF3, 10 nM | 134
sgRNA knockout: sgATF3, 100 nM | 77.1
sgRNA knockout: sgATF3, 1000 nM | 82.6
sgRNA knockout: sgATF3, 10000 nM | 56.1
sgRNA knockout: sgATF4, 10 nM | 125
sgRNA knockout: sgATF4, 100 nM | 97
sgRNA knockout: sgATF4, 1000 nM | 82.3
sgRNA knockout: sgATF4, 10000 nM | 50.91
sgRNA knockout: sgATF6, 10 nM | 97.9
sgRNA knockout: sgATF6, 100 nM | 69
sgRNA knockout: sgATF6, 1000 nM | 98.7
sgRNA knockout: sgATF6, 10000 nM | 45.4
sgRNA knockout: sgATG7, 10 nM | 100
sgRNA knockout: sgATG7, 100 nM | 71.9
sgRNA knockout: sgATG7, 1000 nM | 93.3
sgRNA knockout: sgATG7, 10000 nM | 60
sgRNA knockout: sgERN1, 10 nM | 114
sgRNA knockout: sgERN1, 100 nM | 94.2
sgRNA knockout: sgERN1, 1000 nM | 86.1
sgRNA knockout: sgERN1, 10000 nM | 65
sgRNA knockout: sgHSF2, 10 nM | 104
sgRNA knockout: sgHSF2, 100 nM | 84.3
sgRNA knockout: sgHSF2, 1000 nM | 81.7
sgRNA knockout: sgHSF2, 10000 nM | 58
sgRNA knockout: sgNFE2L2, 10 nM | 80.1
sgRNA knockout: sgNFE2L2, 100 nM | 63.1
sgRNA knockout: sgNFE2L2, 1000 nM | 108
sgRNA knockout: sgNFE2L2, 10000 nM | 56.5
sgRNA knockout: sgSLC35F2, 10 nM | 101
sgRNA knockout: sgSLC35F2, 100 nM | 79.7
sgRNA knockout: sgSLC35F2, 1000 nM | 90.5
sgRNA knockout: sgSLC35F2, 10000 nM | 52.2
sgRNA knockout: sgXBP1, 10 nM | 89.7
sgRNA knockout: sgXBP1, 100 nM | 63.9
sgRNA knockout: sgXBP1, 1000 nM | 92.6
sgRNA knockout: sgXBP1, 10000 nM | 51.37

CO[C@H]1C[C@@H]2CC[C@@H](C)[C@@](O)(O2)C(=O)C(=O)N2CCCC[C@H]2C(=O)O[C@H]([C@H](C)C[C@@H]2CC[C@@H](OCCO)[C@H](OC)C2)CC(=O)[C@H](C)/C=C(\C)[C@@H](O)[C@@H](OC)C(=O)[C@H](C)C[C@H](C)/C=C/C=C/C=C/1C [Everolimus]
Conditions | relative cell number
sgRNA knockout: sgATF3, 1 nM | 74
sgRNA knockout: sgATF3, 10 nM | 70.2
sgRNA knockout: sgATF3, 100 nM | 67.7
sgRNA knockout: sgATF3, 1000 nM | 75.2
sgRNA knockout: sgATF4, 1 nM | 84.4
sgRNA knockout: sgATF4, 10 nM | 56.8
sgRNA knockout: sgATF4, 100 nM | 61.5
sgRNA knockout: sgATF4, 1000 nM | 77.1
sgRNA knockout: sgATF6, 1 nM | 72.3
sgRNA knockout: sgATF6, 10 nM | 54.9
sgRNA knockout: sgATF6, 100 nM | 64.2
sgRNA knockout: sgATF6, 1000 nM | 81.3
sgRNA knockout: sgATG7, 1 nM | 82.8
sgRNA knockout: sgATG7, 10 nM | 74
sgRNA knockout: sgATG7, 100 nM | 50.9
sgRNA knockout: sgATG7, 1000 nM | 70.3
sgRNA knockout: sgERN1, 1 nM | 66.7
sgRNA knockout: sgERN1, 10 nM | 60.4
sgRNA knockout: sgERN1, 100 nM | 67.4
sgRNA knockout: sgERN1, 1000 nM | 76.4
sgRNA knockout: sgHSF2, 1 nM | 70.9
sgRNA knockout: sgHSF2, 10 nM | 72.6
sgRNA knockout: sgHSF2, 100 nM | 54.9
sgRNA knockout: sgHSF2, 1000 nM | 58.4
sgRNA knockout: sgNFE2L2, 1 nM | 82
sgRNA knockout: sgNFE2L2, 10 nM | 73.1
sgRNA knockout: sgNFE2L2, 100 nM | 55.3
sgRNA knockout: sgNFE2L2, 1000 nM | 75.42
sgRNA knockout: sgSLC35F2, 1 nM | 82.8
sgRNA knockout: sgSLC35F2, 10 nM | 37
sgRNA knockout: sgSLC35F2, 100 nM | 79.2
sgRNA knockout: sgSLC35F2, 1000 nM | 41.6
sgRNA knockout: sgXBP1, 1 nM | 74.2
sgRNA knockout: sgXBP1, 10 nM | 53.4
sgRNA knockout: sgXBP1, 100 nM | 66
sgRNA knockout: sgXBP1, 1000 nM | 76.6

CC1(C)CCC(c2ccc(Cl)cc2)=C(CN2CCN(c3ccc(C(=O)NS(=O)(=O)c4ccc(N[C@H](CCN5CCOCC5)CSc5ccccc5)c(S(=O)(=O)C(F)(F)F)c4)cc3)CC2)C1 [Navitoclax]
Conditions | relative cell number
sgRNA knockout: sgATF3, 10 nM | 106
sgRNA knockout: sgATF3, 100 nM | 117
sgRNA knockout: sgATF3, 1000 nM | 102
sgRNA knockout: sgATF3, 10000 nM | 82.3
sgRNA knockout: sgATF4, 10 nM | 116
sgRNA knockout: sgATF4, 100 nM | 149
sgRNA knockout: sgATF4, 1000 nM | 143
sgRNA knockout: sgATF4, 10000 nM | 76.3
sgRNA knockout: sgATF6, 10 nM | 91
sgRNA knockout: sgATF6, 100 nM | 129
sgRNA knockout: sgATF6, 1000 nM | 105
sgRNA knockout: sgATF6, 10000 nM | 67.2
sgRNA knockout: sgATG7, 10 nM | 84
sgRNA knockout: sgATG7, 100 nM | 160
sgRNA knockout: sgATG7, 1000 nM | 78.2
sgRNA knockout: sgATG7, 10000 nM | 80.3
sgRNA knockout: sgERN1, 10 nM | 86.6
sgRNA knockout: sgERN1, 100 nM | 90.8
sgRNA knockout: sgERN1, 1000 nM | 87.6
sgRNA knockout: sgERN1, 10000 nM | 88.8
sgRNA knockout: sgHSF2, 10 nM | 96.3
sgRNA knockout: sgHSF2, 100 nM | 128
sgRNA knockout: sgHSF2, 1000 nM | 92
sgRNA knockout: sgHSF2, 10000 nM | 81.4
sgRNA knockout: sgNFE2L2, 10 nM | 94.2
sgRNA knockout: sgNFE2L2, 100 nM | 105
sgRNA knockout: sgNFE2L2, 1000 nM | 117
sgRNA knockout: sgNFE2L2, 10000 nM | 89.71
sgRNA knockout: sgSLC35F2, 10 nM | 71.8
sgRNA knockout: sgSLC35F2, 100 nM | 141
sgRNA knockout: sgSLC35F2, 1000 nM | 72.5
sgRNA knockout: sgSLC35F2, 10000 nM | 52.7
sgRNA knockout: sgXBP1, 10 nM | 97.48
sgRNA knockout: sgXBP1, 100 nM | 93.91
sgRNA knockout: sgXBP1, 1000 nM | 111
sgRNA knockout: sgXBP1, 10000 nM | 78.8

C=C(c1ccc(C(=O)O)cc1)c1cc2c(cc1C)C(C)(C)CCC2(C)C [Bexarotene]
Conditions | relative cell number
sgRNA knockout: sgATF3, 10 nM | 99.6
sgRNA knockout: sgATF3, 100 nM | 61.4
sgRNA knockout: sgATF3, 1000 nM | 83.8
sgRNA knockout: sgATF3, 10000 nM | 73.3
sgRNA knockout: sgATF4, 10 nM | 101
sgRNA knockout: sgATF4, 100 nM | 64.7
sgRNA knockout: sgATF4, 1000 nM | 88.5
sgRNA knockout: sgATF4, 10000 nM | 92.8
sgRNA knockout: sgATF6, 10 nM | 87.3
sgRNA knockout: sgATF6, 100 nM | 61.1
sgRNA knockout: sgATF6, 1000 nM | 48
sgRNA knockout: sgATF6, 10000 nM | 70.4
sgRNA knockout: sgATG7, 10 nM | 95.8
sgRNA knockout: sgATG7, 100 nM | 73.5
sgRNA knockout: sgATG7, 1000 nM | 82.4
sgRNA knockout: sgATG7, 10000 nM | 80.1
sgRNA knockout: sgERN1, 10 nM | 98.2
sgRNA knockout: sgERN1, 100 nM | 73.8
sgRNA knockout: sgERN1, 1000 nM | 89
sgRNA knockout: sgERN1, 10000 nM | 102
sgRNA knockout: sgHSF2, 10 nM | 92.7
sgRNA knockout: sgHSF2, 100 nM | 69.2
sgRNA knockout: sgHSF2, 1000 nM | 87.6
sgRNA knockout: sgHSF2, 10000 nM | 76.5
sgRNA knockout: sgNFE2L2, 10 nM | 116
sgRNA knockout: sgNFE2L2, 100 nM | 97.7
sgRNA knockout: sgNFE2L2, 1000 nM | 92.3
sgRNA knockout: sgNFE2L2, 10000 nM | 78.8
sgRNA knockout: sgSLC35F2, 10 nM | 60.9
sgRNA knockout: sgSLC35F2, 100 nM | 48.3
sgRNA knockout: sgSLC35F2, 1000 nM | 55.3
sgRNA knockout: sgSLC35F2, 10000 nM | 47.8
sgRNA knockout: sgXBP1, 10 nM | 103
sgRNA knockout: sgXBP1, 100 nM | 73.8
sgRNA knockout: sgXBP1, 1000 nM | 80.9
sgRNA knockout: sgXBP1, 10000 nM | 91.5
